Data published in patent US7091025B2, “Malathion carboxylesterase” (priority 1995, dated 2006).
Like-named read-outs stand apart in the source and are kept apart here.

System: adult female L. cuprina
Assay type: in vivo
Text: The following organophosphorus compounds were used: diazinon (O,O-diethyl O-2-isopropyl-6-methylpyrimidin-4-yl phosphorothioate, 91%, Mallinckrodt), parathion-methyl (O,O-dimethyl O-4-nitrophenyl phosphorothioate, 97.0%, Bayer), parathion (O,O-diethyl O-4-nitrophenyl phosphorothioate, 99%, Pestanal grade, Riedel-de-Haën), fenthion (O,O-dimethyl O-[3-methyl-4-(methylthio)phenyl]phosphorothioate, 98.8%, Bayer), fenthion-ethyl (O,O-diethyl O-[3-methyl-4-(methylthio)phenyl] phosphorothioate, a gift from Dr. G. Levot), dichlorvos (2,2-dichlorovinyl dimethyl phosphate, 99%, Chem Service), diethyl-dichlorvos (2,2-dichlorovinyl diethyl phosphate, a gift from Dr. J. Desmarchelier), di-isopropyl-dichlorvos (2,2-dichlorovinyl di-isopropyl phosphate, a gift from Dr. J. Desmarchelier), malathion (S-1,2-bis(ethoxycarbonyl)ethyl O,O-dimethyl phosphorodithioate, technical grade, Nufarm), isopropyl malathion (S-1,2-bis(ethoxycarbonyl)ethyl O,O-di-isopropyl phosphorodithioate, a gift from Dr. J. Desmarchelier).
The toxicity of OPs in adult female L. cuprina was determined 3 or 4 days post-eclosion by application of OPs to the scutellum in 0.7 μl dioctylphthalate (Busvine, J. R., Bell, J. D. and Guneidy, A. M., Bulletin of Entomological Research 54: 589, 1963;; Townsend, M. G. and Busvine, J. R., Entomology Experimental and Applied 12: 243, 1969). Each OP was applied to at least 20 flies at each of at least 5 different concentrations, spanning the dose causing 50% mortality (LD50). Control groups were treated with solvent but no OP. Mortality was determined 24 hours later. Data were fitted to the probit curve using the Probit Or LOgit (POLO-PC) computer program (LeOra Software, 1987).

SMILES	slope and standard error of the probit regression line (strain LS2)	slope and standard error of the probit regression line (strain Llandillo 103)	slope and standard error of the probit regression line (strain Woodside 5.2)
COP(=S)(OC)Oc1ccc([N+](=O)[O-])cc1 [Parathion-methyl, O,O-dimethyl O-4-nitrophenyl phosphorothioate]	6.5 ± 0.8	3.4 ± 0.5	9.7 ± 1.5
CCOP(=O)(OC=C(Cl)Cl)OCC [Ethyl Dichlorvos, 2,2-dichlorovinyl diethyl phosphate]	5.0 ± 0.8	54 ± 14	4.9 ± 1.2
CCOC(=O)CC(SP(=S)(OC)OC)C(=O)OCC (centres unmarked) [Malathion, S-1,2-bis(ethoxycarbonyl)ethyl O,O-dimethyl phosphorodithioate]	6.4 ± 1.2	4.2 ± 0.9	
COP(=S)(OC)Oc1ccc(SC)c(C)c1 [Fenthion, O,O-dimethyl O-[3-methyl-4-(methylthio)phenyl]phosphorothioate]	5.2 ± 0.7	8.7 ± 1.5	3.9 ± 0.7
CCOP(=S)(OCC)Oc1ccc([N+](=O)[O-])cc1 [Parathion, O,O-diethyl O-4-nitrophenyl phosphorothioate]	9.2 ± 1.1	6.8 ± 1.2	13.3 ± 2.3
COP(=O)(OC)OC=C(Cl)Cl [Dichlorvos, 2,2-dichlorovinyl dimethyl phosphate]	8.2 ± 1.1	5.1 ± 0.8	6.3 ± 1.0
CC(C)OP(=O)(OC=C(Cl)Cl)OC(C)C [Isopropyl Dichlorvos, 2,2-dichlorovinyl di-isopropyl phosphate]	4.1 ± 0.6	4.1 ± 0.5	8.1 ± 1.4
CCOP(=S)(OCC)Oc1cc(C)nc(C(C)C)n1 [Diazinon, O,O-diethyl O-2-isopropyl-6-methylpyrimidin-4-yl phosphorothioate]	3.5 ± 0.5	4.9 ± 0.7	5.1 ± 0.6
CCOC(=O)CC(SP(=S)(OC(C)C)OC(C)C)C(=O)OCC (centres unmarked) [Isopropyl Malathion, S-1,2-bis(ethoxycarbonyl)ethyl O,O-di-isopropyl phosphorodithioate]	6.3 ± 0.7	8.5 ± 1.7	10.1 ± 1.8
CCOP(=S)(OCC)Oc1ccc(SC)c(C)c1 [Fenthion-ethyl, O,O-diethyl O-[3-methyl-4-(methylthio)phenyl] phosphorothioate]	7.4 ± 1.1	8.7 ± 1.5	13.4 ± 2.6
